PubChem BioAssay AID652259 | Drosophila RNAi Screening Center, 2013

Purpose: 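Genome-wide hunt for genes that control Wingless pathway activity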 (primary screen)
System: Drosophila clone 8 imaginal disc epithelial cells
Reagent: long dsRNA against Drosophila genes
Challenge: pathway stimulated by co-transfected Wingless expression plasmid
Detection: 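Firefly luciferase from a tcf-site Wingless reporter, measured alongside co-transfected Renilla luciferase that tracks transfection; pathway stimulated by a Wingless plasmid; the firefly-to-Renilla ratio is not deposited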
Scale: firefly reporter light: higher = more Wg reporter light, before normalisation; Renilla control light: higher = more transfected or surviving cells
Call rule: 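a knock-down is a candidate when at least two out of four statistical tests show it departing from its plate mean; one test alone signals a weak candidate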
Calls: active = candidate regulator (raises or lowers reporter); inactive = not a candidate
The screen tested about 22,000 reagents; below is a random part of those with a known target gene and a result. In the full data, 233 (1.1%) are marked active. 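Light values are raw, unnormalised plate reads; the ratio scores behind the reporter calls were not deposited.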 A number with no mark means an inactive call. The record does not give: the amount of reagent, the time to read-out, the dose of the treatment.

| predicted target | dsRNA | reporter change call, replicate 1 | firefly reporter light, replicate 1 | firefly reporter light, replicate 2 | Renilla control light, replicate 1 | Renilla control light, replicate 2 |
| --- | --- | --- | --- | --- | --- | --- |
| azot (GeneID 35751) | DRSC06051 | – | 2928 | 4741 | 819 | 1884 |
| CG4116 (GeneID 31291) | DRSC18348 | – | 17354 | – | 11204 | – |
| CheB38a (GeneID 2768934) | DRSC03205 | – | 2260 | 7005 | 637 | 2747 |
| CG10555 (GeneID 31771) | DRSC17748 | – | 30245 | – | 8056 | – |
| CalpC (GeneID 32597) | DRSC19873 | – | 14596 | – | 7522 | – |
| PpD3 (GeneID 49779) | DRSC16796 | – | 9840 | – | 3130 | – |
| grh (GeneID 37038) | DRSC05680 | – | 28576 | – | 16629 | – |
| grh (GeneID 37038) | DRSC05683 | – | 10874 | – | 5658 | – |
| grh (GeneID 37038) | DRSC07624 | – | 11116 | – | 2170 | – |
| grh (GeneID 37038) | DRSC07625 | – | 6689 | – | 2337 | – |
| Ir94e (GeneID 42765) | DRSC15229 | – | 21859 | – | 19760 | – |
| Sac1 (GeneID 38137) | DRSC08622 | – | 12560 | – | 2934 | – |
| Hsl (GeneID 37289) | DRSC06028 | – | 9223 | – | 2402 | – |
| Pgi (GeneID 35886) | DRSC07507 | – | 8083 | – | 2336 | – |
| CG11570 (GeneID 39357) | DRSC09844 | – | 8401 | – | 3469 | – |
| CG10907 (GeneID 39331) | DRSC09804 | – | 6009 | – | 2985 | – |
| CG31223 (GeneID 326127) | DRSC15115 | – | 2250 | 6509 | 985 | 1409 |
| Nlg4 (GeneID 42402) | DRSC15108 | – | 24048 | – | 5852 | – |
| Nlg4 (GeneID 42402) | DRSC15109 | – | 17712 | – | 3640 | – |
| Nlg4 (GeneID 42402) | DRSC15700 | – | 15187 | – | 3494 | – |
| Nlg4 (GeneID 42402) | DRSC15701 | – | 14954 | – | 1431 | – |
| Nlg4 (GeneID 42402) | DRSC22243 | – | 5.00e5 | 4.15e5 | 2.30e5 | 2.05e5 |
| CG3942 (GeneID 41489) | DRSC15525 | – | 14244 | – | 3840 | – |
| Pgm2b (GeneID 36649) | DRSC05978 | – | 14930 | – | 6011 | – |
| CG6470 (GeneID 32840) | DRSC19994 | – | 2011 | 6913 | 865 | 2250 |
| CG4267 (GeneID 33405) | DRSC00102 | – | 15015 | – | 9146 | – |
| CG4267 (GeneID 33405) | DRSC00647 | – | 2115 | 3522 | 749 | 1667 |
| Meltrin (GeneID 3772109) | DRSC16274 | – | 7203 | – | 2588 | – |
| Meltrin (GeneID 3772109) | DRSC21693 | – | 4.76e5 | 4.19e5 | 1.95e5 | 1.83e5 |
| CG30159 (GeneID 35611) | DRSC04981 | – | 9946 | – | 4256 | – |
| flap (GeneID 37519) | DRSC03918 | – | 14042 | – | 9707 | – |
| flap (GeneID 37519) | DRSC04087 | – | 7739 | – | 3329 | – |
| Erasp (GeneID 246448) | DRSC07111 | – | 14183 | – | 4089 | – |
| alt (GeneID 42127) | DRSC15315 | – | 6992 | 11272 | 924 | 1453 |
| CG1571 (GeneID 31725) | DRSC18068 | – | 16003 | – | 8273 | – |
| Cyp1 (GeneID 32595) | DRSC20234 | – | 3420 | 11397 | 1225 | 2839 |
| GC (GeneID 38194) | DRSC08396 | – | 4032 | – | 2004 | – |
| Amt (GeneID 41841) | DRSC16055 | – | 14426 | – | 4261 | – |
| DptB (GeneID 37184) | DRSC06001 | – | 13160 | – | 3293 | – |
| Blos1 (GeneID 246439) | DRSC05970 | – | 3680 | – | 1632 | – |
| Mi-2 (GeneID 40170) | DRSC11222 | Wg reporter activity raised (active) | 57387 | – | 6132 | – |
| kmg (GeneID 34706) | DRSC02829 | – | 2108 | 6226 | 833 | 2696 |
| eIF4E1 (GeneID 45525) | DRSC11342 | – | 3159 | – | 1047 | – |
| Sfmbt (GeneID 34709) | DRSC02552 | – | 8851 | – | 3025 | – |
| ago (GeneID 38516) | DRSC08463 | – | 5922 | – | 3184 | – |
| rec (GeneID 49241) | DRSC14998 | – | 12194 | – | 2569 | – |
| rec (GeneID 49241) | DRSC15656 | – | 14316 | – | 3394 | – |
| Lsp2 (GeneID 45326) | DRSC09841 | – | 7091 | – | 2900 | – |
| Lsp2 (GeneID 45326) | DRSC11216 | – | 8125 | – | 2553 | – |

Records listed so far whose gene name starts with N or n:
| predicted target | dsRNA | reporter change call, replicate 1 | firefly reporter light, replicate 1 | firefly reporter light, replicate 2 | Renilla control light, replicate 1 | Renilla control light, replicate 2 |
| --- | --- | --- | --- | --- | --- | --- |
| Nlg4 (GeneID 42402) | DRSC15108 | – | 24048 | – | 5852 | – |
| Nlg4 (GeneID 42402) | DRSC15109 | – | 17712 | – | 3640 | – |
| Nlg4 (GeneID 42402) | DRSC15700 | – | 15187 | – | 3494 | – |
| Nlg4 (GeneID 42402) | DRSC15701 | – | 14954 | – | 1431 | – |
| Nlg4 (GeneID 42402) | DRSC22243 | – | 5.00e5 | 4.15e5 | 2.30e5 | 2.05e5 |
